# For at least one compound, name, drawing or mass did not settle the structure.
# Assays:
# Assay type in all cases: in vivo, human
# [1] = test system: statin-treated patients with established CVD or at high risk for CVD, and hypertriglyceridemia; experiment: REDUCE-IT time-to-first-event analysis of adjudicated cardiovascular endpoints (primary, key secondary, secondary, tertiary); settings: for Influence of achieved triglyceride level at 1 year on efficacy vs placebo (primary, key secondary endpoint): above or below 150 mg/dL at 1 year
# Description: The following study, also referred to as the REDUCE-IT clinical trial, was a large cardiovascular (CV) outcome trial designed to assess CV risk reduction benefit of AMR101 treatment (commercially known as VASCEPA®) versus placebo on the 5-point primary composite endpoint: CV death, non-fatal stroke, non-fatal myocardial infarction (MI), coronary revascularizations, or unstable angina requiring hospitalization.
# A multi-center, prospective, randomized, double-blind, placebo-controlled, parallel-group study was performed to evaluate the effect of AMR101 (4 g per day) on cardiovascular health and mortality in hypertriglyceridemic patients with cardiovascular disease or at high risk for cardiovascular disease. The intended expanded indication of the study was treatment with AMR101 as an add-on to statin therapy to reduce the risk of cardiovascular events in patients with clinical cardiovascular disease or with multiple risk factors for cardiovascular disease.
# The primary objective of this study was, in patients at LDL-C goal while on statin therapy, with established cardiovascular disease (CVD) or at high risk for CVD, and hypertriglyceridemia (e.g., fasting triglycerides (TG) 200 mg/dL and <500 mg/dL), to evaluate the effect of AMR101 4 g daily on time from randomization to first occurrence of any component of the composite of the following major CV events: CV death; nonfatal MI; (including silent MI; electrocardiograms (ECGs) were performed annually for the detection of silent MIs); nonfatal stroke; coronary revascularization; and unstable angina determined to be caused by myocardial ischemia by invasive/non-invasive testing and requiring emergent hospitalization.
# The key secondary objective of this study was to evaluate the effect of AMR101 4 g daily on the time from randomization to the first occurrence of the composite of following major CV events: CV death, nonfatal MI (including silent MI), and nonfatal stroke.
# Other secondary objectives for this study were to evaluate the effect of therapy on time from randomization to the first occurrence of the following individual or composite endpoints: composite of CV death or nonfatal MI (including silent MI); fatal or nonfatal MI (including silent MI); non-elective coronary revascularization represented as the composite of emergent or urgent classifications; CV death; unstable angina determined to be caused by myocardial ischemia by invasive/non-invasive testing and requiring emergent hospitalization; fatal or nonfatal stroke; composite of total mortality, nonfatal MI (including silent MI), or nonfatal stroke; and total mortality.
# Primary Efficacy Endpoint: The primary efficacy endpoint was time from randomization to the first occurrence of the composite of the following clinical events: CV death; nonfatal MI (including silent MI; ECGs were performed annually for the detection of silent MIs); nonfatal stroke; coronary revascularization; and unstable angina determined to be caused by myocardial ischemia by invasive/non-invasive testing and requiring emergent hospitalization. The first occurrence of any of these major adverse vascular events during the follow-up period of the study were included in the incidence.
# Secondary Efficacy Endpoints: The key secondary efficacy endpoint was the time from randomization to the first occurrence of the composite of CV death, nonfatal MI (including silent MI), or nonfatal stroke. […]
# [2] = test system: statin-treated patients with established atherosclerosis or diabetes plus risk factor; experiment: Example 2: recurrent and total ischemic events analysis (Andersen-Gill, Wei-Lin-Weissfeld)
# Description: The following study was a multi-center, placebo-controlled clinical trial the details of which are described above in Example 1, the REDUCE-IT design. […] Randomization was stratified by cardiovascular risk cohort (i.e., secondary or primary prevention), use of ezetimibe, and by geographic region.
# The primary outcome for the study was total recurrent events consisting of the composite of cardiovascular death, nonfatal myocardial infarction, nonfatal stroke, coronary revascularization, or hospitalization for unstable angina. Recurrent event analyses were also performed for the key secondary endpoint, a composite of cardiovascular death, non-fatal myocardial infarction, or non-fatal stroke. For each of these composite endpoints, the effects of icosapent ethyl in the secondary and primary prevention strata were examined separately.
# Demographic and baseline disease characteristics are presented using frequencies and percentages for categorical variables and medians with interquartile ranges for continuous variables. Between treatment group comparisons were derived using the chi-square test for categorical variables and Wilcoxon rank test for continuous variables. All clinical endpoint events used in the efficacy analyses were adjudicated by an independent Clinical Endpoint Committee (CEC) who were blinded to the treatment assignment. Since the primary efficacy endpoint was the time from randomization to the first occurrence of any component of the composite endpoint, and recurrence of such events within each patient is possible, a pre-specified analysis using a Cox proportional-hazard with the counting-process formulation of Andersen and Gill was performed to model the first and all recurrent cardiovascular events. Hazard ratios (HR) and corresponding 95% confidence intervals (CI) are reported from this model. In addition, as a marginal model and an extension of survival models based on the Cox proportional hazard model, the modified Wei-Lin-Weissfeld (WLW) method for analysis of recurrent events in the presence of deaths was carried out as a supportive analysis. In addition, as pre-specified, a recurrent event analysis using the Andersen-Gill and Wei-Lin-Weissfeld methods were carried out for the individual primary event components other than CV death. Though not pre-specified, additional recurrent event analyses were performed for the key secondary endpoint, which is a composite of CV death, non-fatal MI, or non-fatal stroke, and for the primary endpoint and the key secondary endpoint in the primary and secondary prevention strata to explore further the consistency of clinical benefit of icosapent ethyl. In subgroup analyses of the two cardiovascular risk strata (i.e., primary and secondary prevention), site-level discrepancies in cardiovascular risk group assignment occurring at entry and detected during the study (1.8%) were adjusted to conform with documented medical history data prior to randomization. All efficacy analyses were performed according to the intention-to-treat principle. All tests were based on a 2-sided nominal significance level of 5% with no adjustments for multiple comparisons.
# [3] = test system: statin-treated patients with elevated triglycerides; experiment: Example 3: total (first and subsequent) ischemic events analysis (negative binomial, modified Wei-Lin-Weissfeld, Andersen-Gill, joint frailty)
# Description: The following study was a multi-center, placebo-controlled clinical trial the details of which are described above in Example 1, the REDUCE-IT design. […] The main outcomes were total primary composite endpoint events defined as cardiovascular death, nonfatal myocardial infarction, nonfatal stroke, coronary revascularization, or hospitalization for unstable angina and total key secondary composite endpoint events defined as cardiovascular death, nonfatal myocardial infarction, or nonfatal stroke. In the context of this study, total events refer to any first event as well as any subsequent event. Differences in total events were determined using other statistical models, including Andersen-Gill, Wei-Lin-Weissfeld (Li and Lagakos), both pre-specified, and a post hoc and joint-frailty analysis. […]
# Baseline characteristics were compared between treatment groups using the chi-squared test for categorical variables and the Wilcoxon rank sum test for continuous variables. […] In addition, in order to account for informative censoring due to cardiovascular death, the HR for total non-fatal events was calculated using a joint frailty model (See Rondeau V. Joint frailty models for recurring events and death using maximum penalized likelihood estimation: application on cancer events. Biostatistics. 2007; 8:708-21). […]
# [4] = test system: statin-treated patients by baseline triglyceride tertile; experiment: Example 4: ischemic events as a function of baseline triglyceride tertile; settings: baseline triglyceride levels across all tertiles; 4 g per day
# [5] = test system: statin-treated patients in the icosapent ethyl group; experiment: Example 5: new heart failure by on-treatment EPA tertile (post hoc); settings: 4 g per day; FIG. 51
# Description: The mechanical or surgical intervention including mechanical circulatory support (e.g., intra-aortic balloon pump, ventricular assist device) and/or mechanical fluid removal (e.g., ultrafiltration, hemofiltration, dialysis).
# New Heart Failure/Heart Failure Not Requiring Hospitalization: is defined as an event that meets all of the following: the patient has an urgent, unscheduled office/practice or emergency department visit for a primary diagnosis of HF, but not meeting the criteria for a HF hospitalization; all signs and symptoms for HF hospitalization must be met as defined in A Heart Failure Hospitalization above; and the patient receives initiation or intensification of treatment specifically for HF, as detailed in the above section with the exception of oral diuretic therapy, which was not sufficient.
# The study design was the same as that described above in Example 1 related to the REDUCE-IT clinical trial.
# Prespecified tertiary endpoints of NHF (HR=0.95; 95% CI, 0.77-1.17; p=0.63) and NHF requiring hospitalization (HR=0.97; 0.77-1.22; p=0.78) from the REDUCE-IT clinical trial were not significant.
smiles,measurement,setting,value
"CC/C=C\C/C=C\C/C=C\C/C=C\C/C=C\CCCC(=O)OCC [icosapent ethyl, eicosapentaenoic acid ethyl ester]","Influence of achieved triglyceride level at 1 year on efficacy vs placebo (primary, key secondary endpoint)",[1],no influence
same,"Influence of achieved triglyceride level at 1 year on efficacy vs placebo (primary, key secondary endpoint)",[1]; listed as AMR101,did not influence
same,Individual and composite ischemic endpoints in prespecified hierarchical testing vs placebo,[1]; all except death from any cause,significantly reduced
same,Amputation for PVD: n/N,"[1]; tertiary endpoint, 4 g/day",22/4089
same,Cardiac Arrest: n/N,"[1]; tertiary endpoint, 4 g/day",22/4089
same,Cardiac Arrhythmias Requiring Hospitalization of ≥24 Hours: n/N,"[1]; tertiary endpoint, 4 g/day",188/4089
same,Carotid Revascularization: n/N,"[1]; tertiary endpoint, 4 g/day",31/4089
same,Coronary Revascularization: n/N,"[1]; tertiary endpoint, 4 g/day",376/4089
same,Elective Revascularization: n/N,"[1]; tertiary endpoint, 4 g/day",194/4089
same,Emergent Revascularization: n/N,"[1]; tertiary endpoint, 4 g/day",41/4089
same,Hemorrhagic Stroke: n/N,"[1]; tertiary endpoint, 4 g/day",13/4089
same,Ischemic Stroke: n/N,"[1]; tertiary endpoint, 4 g/day",80/4089
same,New Heart Failure Requiring Hospitalization: n/N,"[1]; tertiary endpoint, 4 g/day",141/4089
same,New Heart Failure: n/N,"[1]; tertiary endpoint, 4 g/day",169/4089
same,Primary Endpoint in Patients with Diabetes at Baseline: n/N,"[1]; tertiary endpoint, 4 g/day",433/2394
same,Salvage Revascularization: n/N,"[1]; tertiary endpoint, 4 g/day",0/4089
same,Sudden Cardiac Death: n/N,"[1]; tertiary endpoint, 4 g/day",61/4089
same,Transient Ischemic Attack: n/N,"[1]; tertiary endpoint, 4 g/day",64/4089
same,Urgent Revascularization: n/N,"[1]; tertiary endpoint, 4 g/day",181/4089
same,New Onset of Diabetes: n/N,"[1]; tertiary endpoint, patients with diabetes at baseline excluded",65/1695
same,Influence of baseline triglyceride levels on primary or key secondary efficacy endpoints,[1]; ≥150 vs. <150 mg/dL or ≥200 or <200 mg/dL,no influence
same,"First, second, and recurrent ischemic events compared to placebo",[2]; FIG. 13,reduced
same,Cumulative key secondary endpoints,[2]; primary prevention cohort,reduced
same,Cumulative primary endpoints,[2]; primary prevention cohort,reduced
same,Cumulative key secondary endpoints,[2]; secondary prevention cohort,reduced
same,Cumulative primary endpoints,[2]; secondary prevention cohort,reduced
same,Total primary and key secondary composite endpoints and each individual component vs placebo,[3]; FIG. 36,significantly reduced
same,Total and time to first primary and key secondary composite endpoint events vs placebo,[3]; FIGS. 34A and 34B,significantly reduced
same,"Time to first cardiovascular event and total cardiovascular events, primary and key secondary composite endpoints",[4],statistically significant reductions
same,New heart failure (NHF) as a function of EPA tertile,[5],reduced

# Reference: US11986452B2, “Methods of reducing the risk of heart failure” (Amarin Pharmaceuticals Ireland Limited, priority 2021, dated 2024)
